The values below come from PMC12533068.

No constants are given. Whether binding was seen depends on the method and setting. Binding seen in cells or lysates may run through a third protein. Sequences can lack the tags named with a protein.

The test has as its target HA-Src SH3 domain-deleted mutant (human) (UniProt P12931). Briefly: co-IP; HEK293T (and Huh7, Fig. 1B) cells co-transfected with Myc-TRIM56 or its domain-deleted mutants and HA-Src or its domain-deleted mutants; which tag was precipitated is not told.

B1: Myc-TRIM56 (tripartite motif-containing protein 56) (protein, UniProt Q9BRZ2 1-755)
chain: MVSHGSSPSLLEALSSDFLACKICLEQLRAPKTLPCLHTYCQDCLAQLADGGRVRCPECRETVPVPPEGVASFKTNFFVNGLLDLVKARACGDLRAGKPACALCPLVGGTSTGGPATARCLDCADDLCQACADGHRCTRQTHTHRVVDLVGYRAGWYDEEARERQAAQCPQHPGEALRFLCQPCSQLLCRECRLDPHLDHPCLPLAEAVRARRPGLEGLLAGVDNNLVELEAARRVEKEALARLREQAARVGTQVEEAAEGVLRALLAQKQEVLGQLRAHVEAAEEAARERLAELEGREQVARAAAAFARRVLSLGREAEILSLEGAIAQRLRQLQGCPWAPGPAPCLLPQLELHPGLLDKNCHLLRLSFEEQQPQKDGGKDGAGTQGGEESQSRREDEPKTERQGGVQPQAGDGAQTPKEEKAQTTREEGAQTLEEDRAQTPHEDGGPQPHRGGRPNKKKKFKGRLKSISREPSPALGPNLDGSGLLPRPIFYCSFPTRMPGDKRSPRITGLCPFGPREILVADEQNRALKRFSLNGDYKGTVPVPEGCSPCSVAALQSAVAFSASARLYLINPNGEVQWRRALSLSQASHAVAALPSGDRVAVSVAGHVEVYNMEGSLATRFIPGGKASRGLRALVFLTTSPQGHFVGSDWQQNSVVICDGLGQVVGEYKGPGLHGCQPGSVSVDKKGYIFLTLREVNKVVILDPKGSLLGDFLTAYHGLEKPRVTTMVDGRYLVVSLSNGTIHIFRVRSPDS
For the molecule B1, the binding entry is on record as “no binding”.
